Source: article PMC10713652
Results are given in words; binding and its absence hold for the method and conditions named. Binding seen in cells or lysates may run through a third protein. Some entries that bind do so weakly or less than the wild type.

Sequences of proteins named here, by UniProt entry; tags and fusion partners are left off. Residues count along the entry.
UniProt Q8NI17, residues 20-732: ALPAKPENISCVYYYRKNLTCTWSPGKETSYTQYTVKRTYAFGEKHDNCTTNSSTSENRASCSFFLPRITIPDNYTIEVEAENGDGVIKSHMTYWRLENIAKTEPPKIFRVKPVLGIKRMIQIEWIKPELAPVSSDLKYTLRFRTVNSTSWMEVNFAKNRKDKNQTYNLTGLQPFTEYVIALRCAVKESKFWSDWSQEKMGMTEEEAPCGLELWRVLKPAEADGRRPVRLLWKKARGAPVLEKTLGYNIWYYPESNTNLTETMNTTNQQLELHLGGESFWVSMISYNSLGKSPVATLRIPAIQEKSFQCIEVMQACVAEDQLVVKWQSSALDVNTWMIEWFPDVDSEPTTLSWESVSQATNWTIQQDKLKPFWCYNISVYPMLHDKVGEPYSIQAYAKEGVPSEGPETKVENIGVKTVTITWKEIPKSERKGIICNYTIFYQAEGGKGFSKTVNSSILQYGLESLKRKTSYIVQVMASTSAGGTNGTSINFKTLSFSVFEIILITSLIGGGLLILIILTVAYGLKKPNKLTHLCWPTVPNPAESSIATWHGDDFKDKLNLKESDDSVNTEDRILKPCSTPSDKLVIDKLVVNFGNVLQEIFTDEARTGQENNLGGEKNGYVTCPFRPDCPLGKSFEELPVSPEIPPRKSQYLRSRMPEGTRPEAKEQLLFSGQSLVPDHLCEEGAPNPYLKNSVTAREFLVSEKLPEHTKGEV
UniProt P20309: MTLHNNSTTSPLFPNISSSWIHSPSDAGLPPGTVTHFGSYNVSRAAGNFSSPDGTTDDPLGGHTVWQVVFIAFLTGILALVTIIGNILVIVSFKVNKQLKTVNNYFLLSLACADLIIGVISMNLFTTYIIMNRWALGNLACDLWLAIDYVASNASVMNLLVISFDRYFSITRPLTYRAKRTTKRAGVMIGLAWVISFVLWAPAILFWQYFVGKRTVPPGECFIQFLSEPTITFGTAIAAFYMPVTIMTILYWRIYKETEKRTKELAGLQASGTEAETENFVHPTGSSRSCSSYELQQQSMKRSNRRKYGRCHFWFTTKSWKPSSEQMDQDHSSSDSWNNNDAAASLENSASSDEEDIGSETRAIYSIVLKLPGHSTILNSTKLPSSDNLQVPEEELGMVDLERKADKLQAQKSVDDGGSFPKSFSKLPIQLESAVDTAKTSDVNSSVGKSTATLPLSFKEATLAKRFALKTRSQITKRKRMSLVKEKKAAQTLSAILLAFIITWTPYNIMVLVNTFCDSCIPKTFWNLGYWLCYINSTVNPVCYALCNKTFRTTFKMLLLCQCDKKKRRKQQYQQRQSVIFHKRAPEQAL

How the values were obtained:
[1] = target: IL-31RA in hTERT cells (human airway smooth muscle cell line) (human (endogenous in hTERT cells)) (UniProt Q8NI17); assay: proximity ligation; in situ Duolink PLA in hTERT cells; methanol-fixed; primary antibodies against IL-31RA and CHRM3, isotype IgG as negative control
[2] = target: C-terminal FLAG-tagged IL-31RA (interleukin 31 receptor alpha), overexpressed from an Origene plasmid (UniProt Q8NI17); assay: co-IP; HEK293T cells transfected for 72 h with FLAG-tagged IL-31RA or control plasmid; RIPA lysates; agarose A/G beads with anti-FLAG or control IgG; washed three times with PBS, eluted with low pH glycine; blots with anti-Flag, anti-IL31RA and anti-CHRM3

binding [1]	binding [2]	Substance
binds	–	CHRM3 in hTERT cells (human airway smooth muscle cell line) (from UniProt P20309 1-590) (receptor)
–	binds	endogenous CHRM3 protein of HEK293T cells (from UniProt P20309 1-590) (receptor)
